Experimental data: patent publication US20250206780A1, “CYCLIC PEPTIDES AND THEIR USE FOR THE TREATMENT OF DISEASES ASSOCIATED WITH DICARBONYLS LIKE METHYLGLYOXAL” (UNIVERSITÄT HEIDELBERG, priority 2022, published 2025)
“Also recorded” adds a separate entry of the source. Not every detail of the peptide structures is certain; ends, links or a residue may be inferred. For at least one compound, name, drawing or mass did not settle the structure. Starred links: 1 amine or outer side, 2 acyl side, 3 side chain; linkers in the order of their positions; H or OH if unused. Positions of bridges follow the written chain, without caps; N, C: chain ends. Residues, ends and D or L forms follow the SMILES beside them. Groups on a side chain read outwards from the residue. *: point of attachment. d(γGlu) = O=C(O)[C@@H](CCC(=O)[*:2])N[*:1]; C16 diacid = O=C(O)CCCCCCCCCCCCCCC(=O)*; Dap = NC[C@H](N)C(=O)O

Assays:
[1] = system: mice with diet-induced obesity (DIO); assay: Dap3 treatment of mice with diet-induced obesity (GTT, ITT, fasting insulin, islet immunofluorescence); type: in vivo, C57BL/6-J mice; conditions: 3 μmol/kg ip daily
MG scavenging in vitro = type: biochemical; conditions: 2 reactive sites per molecule MG
[2] = type: in vivo, mice; conditions: i.p. 3.0 μmol/kg, EDTA plasma, LC MS/MS
Method: Animals were injected with Dap3 and blood was collected into EDTA containing tubes at indicated time points with n=3 per time point. After centrifugation EDTA plasma was stored at −80° C. until analysis. Dap3 was quantified by LC MS/MS as described in section 6.
6. Detection of Dap3 and MG-Modified Dap3 by LC-MS/MS A Dap3-MG standard was prepared by incubation of Dap3 with methylglyoxal in 0.1 M phosphate buffer followed by purification by preparative HPLC. The peptide CycK(e-Hdd)R4E was employed as internal standard which was added to the standard curve and plasma samples prior to precipitation. Prior to analysis 2 parts acetonitrile were added to the plasma, vortexed and centrifuged for 10 min at 13,000 g. The supernatant was analysed using an ACQUITY UPLC I fitted with a Acquity UPLC BEH C18 column (Waters, 2.1 mm*100 mm, […]) with a pre-column (2.1×5 mm, 1.7 μm) and a Xevo TQ-XS mass spectrometer (Waters, USA). Solvent A was water+0.1% formic acid and solvent B was acetonitrile+0.1% formic acid. A linear gradient from 0-100% solvent B at a flow rate of 0.2 ml/min over 20 min and a column temperature of 30° C. was used. The detailed parameters for the quantification of Dap3, Dap3-MG and CycK(e-Hdd)R4E, are described below

For NC[C@H](N)C(=O)NCCCC[C@@H]1NC(=O)[C@H](CCCCNC(=O)[C@@H](N)CN)NC(=O)[C@H](CCC(=O)O)NC(=O)[C@H](CCCCNC(=O)[C@@H](N)CN)NC(=O)[C@H](CCCCNC(=O)CC[C@@H](NC(=O)CCCCCCCCCCCCCCC(=O)O)C(=O)O)NC(=O)CC[C@@H](C(=O)O)NC1=O [Dap3] (K([d(γGlu)-C16 diacid])K(Dap)EK(Dap)K(Dap)E-OH; lactam N-6), the “amount of insulin per beta cell (insulin intensity, immunofluorescence)” value ([1]; 4 weeks) was “normalised; also recorded: levels similar to lean mice”, the “elevated fasting serum insulin levels” value ([1]; after 2 and 4 weeks) was “partially normalized; also recorded: partially normalised” and the “glucose tolerance (GTT)” value ([1]; after 2 weeks of treatment) was “trend for improvement”. The “insulin tolerance (ITT)” value ([1]; after 2 weeks of treatment) was “improved; also recorded: partially normalised”, the “glucose tolerance (GTT)” value ([1]; after 4 weeks of treatment) was “improved; also recorded: ameliorative effect” and the “insulin tolerance (ITT)” value ([1]; after 4 weeks of treatment) was “improved”. The “MG scavenging activity compared with known scavengers” value (MG scavenging in vitro) was “activity similar to the known small molecule scavenger aminoguanidine” and the “MG binding in vivo: MG modified peptide in plasma after injection of Dap3” value [2] was “detection of the MG modified peptide in plasma”.
